Reference: patent EP0529622A2, “Cloning and characterization of a cardiac adenylyl cyclase” (AMERICAN CYANAMID COMPANY, priority 1991, dated 1993)
For at least one compound, name, drawing or mass did not settle the structure.

Chains of the proteins cited; added tags and fusions are not shown. Residues count along the entry.
UniProt P30803, 82-1265 limits assumed: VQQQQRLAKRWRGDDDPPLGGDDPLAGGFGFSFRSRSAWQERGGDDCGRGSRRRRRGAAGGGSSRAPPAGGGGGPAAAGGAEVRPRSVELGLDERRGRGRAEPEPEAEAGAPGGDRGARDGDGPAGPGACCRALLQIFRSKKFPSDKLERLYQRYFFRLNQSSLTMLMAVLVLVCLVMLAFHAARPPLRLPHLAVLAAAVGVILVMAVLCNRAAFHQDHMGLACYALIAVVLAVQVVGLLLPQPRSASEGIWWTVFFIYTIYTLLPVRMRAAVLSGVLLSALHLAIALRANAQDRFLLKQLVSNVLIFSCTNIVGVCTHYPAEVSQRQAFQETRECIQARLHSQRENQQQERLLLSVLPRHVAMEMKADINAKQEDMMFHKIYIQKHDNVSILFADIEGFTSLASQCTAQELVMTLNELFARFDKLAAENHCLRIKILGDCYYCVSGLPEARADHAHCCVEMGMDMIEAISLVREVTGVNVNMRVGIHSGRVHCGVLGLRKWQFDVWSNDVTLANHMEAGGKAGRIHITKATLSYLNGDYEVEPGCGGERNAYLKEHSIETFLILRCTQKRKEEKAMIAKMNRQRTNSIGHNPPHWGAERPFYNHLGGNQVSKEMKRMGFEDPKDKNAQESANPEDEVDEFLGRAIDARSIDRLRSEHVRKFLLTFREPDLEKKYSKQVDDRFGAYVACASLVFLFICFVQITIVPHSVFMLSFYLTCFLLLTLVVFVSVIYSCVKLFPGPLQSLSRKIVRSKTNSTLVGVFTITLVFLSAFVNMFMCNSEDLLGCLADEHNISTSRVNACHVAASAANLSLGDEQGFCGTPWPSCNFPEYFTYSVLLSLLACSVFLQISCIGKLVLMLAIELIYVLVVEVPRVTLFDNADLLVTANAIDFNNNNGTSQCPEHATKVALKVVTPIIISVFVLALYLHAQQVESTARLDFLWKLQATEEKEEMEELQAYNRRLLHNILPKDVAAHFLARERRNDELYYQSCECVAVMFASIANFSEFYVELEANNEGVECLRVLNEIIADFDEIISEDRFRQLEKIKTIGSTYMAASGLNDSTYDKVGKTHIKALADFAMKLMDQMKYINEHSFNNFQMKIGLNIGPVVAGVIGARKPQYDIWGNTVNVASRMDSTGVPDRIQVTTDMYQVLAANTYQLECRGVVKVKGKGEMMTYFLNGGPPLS

Tests used:
cardiac adenylyl cyclase = molecular target: T1, cardiac adenylyl cyclase (Canis lupus familiaris, UniProt P30803); assay: Adenylyl cyclase activity assay (method of Salomon), crude membranes of CMT cells transfected with pcDNA113-72; type: biochemical, canine
T1 construct: The expression vector containing the full length cDNA is designated pcDNA113-72; expressed in transfected cells; host or cells: monkey kidney CMT cells (COS derivative), transient transfection with pcDNA113-72, crude membrane preparation
Text: Biochemical characterization of the protein product encoded by this cDNA is obtained using a CMT cell-expression system. The CMT cell is a derivative of the COS cell in which expression of the T-antigen is under the control of a metallothionein promoter. Thus the accumulation of T-antigen in the cell is further enhanced by the addition of heavy metal ion in the medium. The adenylyl cyclase cDNA construct (113-72) is cloned into pcDNA 1, a CMV promoter-driven expression vector with an SV40 enhancer-origin of replication element. A crude membrane preparation is prepared from the transfected CMT cells and a variety of agents known to stimulate adenylyl cyclase are examined (Table I). There is a dose-dependent relationship between the amount of plasmid transfected and the resultant adenylyl cyclase activity, both basal and forskolin-stimulated (0-30 µg per transfection). When the plasmid without insert is transfected, the resultant adenylyl cyclase activity is slightly (∼15%) lower than that of mock-transfected cells. All activities are enhanced several-fold in the transfected cells, as compared to controls, with the forskolin-stimulated activity showing the greatest increase in activity (>6-fold increase over control).
In an example of such expression, twenty µg of the purified plasmid pcDNA 113-72 are transfected into the monkey kidney CMT cells using a modified method of Golub et al. (17). Briefly, the cells are grown to 80% confluence in Dulbecco's modification of Eagle's Medium, 10% fetal calf serum, 2 mM glutamine, 4.5 mg/ml glucose, 10 µg/ml streptomycin sulfate and 60 µg/ml penicillin K. After washing with PBS twice, 0.5 ml of trypsin solution is added. The cells are incubated for 10 minutes, and 20 µg of purified plasmid resuspended in 4 ml of DMEM containing 400 µg/ml DEAE dextran and 0.1 mM chloroquine is added. The cells are incubated for four hours followed by 10% DMSO shock for two minutes. […]

untransfected CMT cells = assay: Adenylyl cyclase activity assay, membrane from untransfected CMT cells (control); type: biochemical, monkey; conditions: Control (untransfected CMT cell membrane); 100 µM forskolin; ± standard error

With C=C[C@@]1(C)CC(=O)[C@]2(O)[C@@]3(C)[C@@H](O)CCC(C)(C)[C@@H]3[C@H](O)[C@H](OC(C)=O)[C@@]2(C)O1 [Forskolin, forskolin] the “adenylyl cyclase activity, Forskolin” value (cardiac adenylyl cyclase; Transfected CMT cell membranes, 100 µM forskolin, ± standard error) was 321±28.0, the “forskolin-stimulated activity, increase over control” value (cardiac adenylyl cyclase; transfected cells compared to controls) was over 6 fold and the “fold more stimulation than the control” value (cardiac adenylyl cyclase; transfected vs untransfected control, 10 mM sodium fluoride, 100 µM GTPγS, 100 µM forskolin) was 6.2 fold. The “adenylyl cyclase activity, Forskolin” value (untransfected CMT cells) was 52± 7.2.
